PubChem BioAssay AID504808 | Drosophila RNAi Screening Center | 2011
The deposit covers about 21,000 reagents; below is an unselected part of those that have a named target and a result. In the full data, 18 (0.084%) are marked active. 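Raw counts without plate normalisation, one of two replicates; the ratio scores behind the calls were not deposited.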 Entries without a mark were called inactive. Reagents against one gene are numbered here. A plus sign joins genes that one reagent is predicted to hit. Not given: the amount of reagent, the time to read-out.

Test: 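Chromatin factors that keep E2F targets switched off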 (primary screen)
Cells: Drosophila S2 cells
Reagent: long dsRNA against Drosophila genes
Measured: 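Dual luciferase plate measurements; E2F-specific signal taken as firefly over Renilla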
Direction: E2F firefly: higher = more E2F reporter activity; Renilla normaliser: higher = more normaliser reporter signal
Hit rule: 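Called active if the normalised E2F reporter went up by over 50%; the cutoff is arbitrary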

target,dsRNA no.,"E2F firefly, rep 1","Renilla normaliser, rep 1"
CG9377,1,71960,3133
Got1 (Glutamate oxaloacetate transaminase 1),1,65813,3329
CG43386,1,1.31e5,6443
CAHbeta (Carbonic anhydrase beta),1,80936,3748
CG14107,1,1.04e5,6738
NimA (Nimrod A),1,1.35e5,5302
Tace,1,1877,952
CG11674,1,7862,848
Art7 (Arginine methyltransferase 7),1,98945,4186
Gmppa (GDP-mannose pyrophosphorylase A),1,95077,4060
bol (boule),1,1.32e5,5994
bol (boule),2,87691,3525
bol (boule),3,1.01e5,3579
sordd2 + sordd1,1,6672,732
Rbbp5 (Retinoblastoma binding protein 5),1,1.32e5,7026
CG15471,1,1.22e5,5534
Ac76E (Adenylyl cyclase 76E),1,81070,3532
Ac76E (Adenylyl cyclase 76E),2,84372,3920
BORCS5 (BLOC-1 related complex subunit 5),1,8434,772
CG15332,1,1.11e5,4650
CG12826,1,1.59e5,5572
RhoGDI,1,69321,3439
CG3587,1,66428,940
CG3328,1,75490,3704
krz (kurtz),1,1.31e5,5996
CG18853,1,1.52e5,4595
qkr58E-3 (quaking related 58E-3),1,75797,3167
Pgam5-2 (Phosphoglycerate mutase 5-2),1,1.20e5,4570
CG10979,1,1.51e5,6793
Hpd (4-hydroxyphenylpyruvate dioxygenase),1,87953,4128
CG11267,1,1.37e5,6974
CG15873,1,1.04e5,4908
pins (partner of inscuteable),1,74410,5682
Tsp42Ei (Tetraspanin 42Ei),1,1.35e5,4563
CG12608,1,7894,808
syd (sunday driver),1,67555,3754
CG6900 (retired record),1,1.30e5,6228
CG14106,1,1.26e5,7376
CG5989,1,74249,3843
tor (torso),1,1.46e5,4702
CG13540,1,1.11e5,4091
sicily (severe impairment of CI with lengthened youth),1,1.27e5,6172
Gapdh2 (Glyceraldehyde 3 phosphate dehydrogenase 2),1,1.56e5,7275
"Prosalpha4T2 (Proteasome alpha4 subunit, Testis-specific 2)",1,1.16e5,4707
Cyp4d1 (Cytochrome P450 4d1),1,87265,2529
Cyp4d1 (Cytochrome P450 4d1),2,1.07e5,5138
CG5535,1,68148,3426
CG32652 (retired record),1,80804,2888
Rab14,1,84578,4136
CG30183,1,1.13e5,4091
CG30183,2,1.17e5,4132
G9a,1,1.22e5,6035
CG15861,1,1.33e5,5513
Arl4 (ADP ribosylation factor-like 4),1,42077,3153
CG9143,1,71110,4207
lectin-21Cb,1,1.75e5,6756
Naa15-16 (N(alpha)-acetyltransferase 15/16),1,51441,3395
Ptpmeg (Protein tyrosine phosphatase Meg),1,84833,3346
pns (pinstripe),1,1.11e5,4320
CG5913,1,1.22e5,6243
Osi7 (Osiris 7),1,1.38e5,6505
RASSF8 (Ras association domain family member 8),1,1861,1120
hoe2 (hoepel2),1,1.48e5,4744
CG13484,1,1.66e5,8181
CG42674,1,52881,3312
CG42674,2,1.22e5,5651
CG42674,3,1.30e5,6994
anne (anne boleyn),1,64989,2110
CG10479,1,87159,4508
CG30103,1,1.41e5,4959
Rab6,1,73785,3495
ftz (fushi tarazu),1,1.31e5,6592
CG1354,1,1.08e5,5340
CG4218,1,1.01e5,4743
Sfp53D (Seminal fluid protein 53D),1,1.82e5,6866
CG30394,1,1.04e5,4038
CG30394,2,1.14e5,4705
Nil (Nilkantha),1,98276,5175
dpr14 (defective proboscis extension response 14),1,8084,756
CG31523,1,91766,3923
CG31523,2,87286,4490
fd96Ca (forkhead domain 96Ca),1,99241,5573
CG9717,1,1.30e5,6850
Naa30A (N(alpha)-acetyltransferase 30 A),1,1279,960
dsf (dissatisfaction),1,1.51e5,4790
Phax (Phosphorylated adaptor for RNA export),1,1.57e5,4638
CG17193,1,1.36e5,7215
Sec61alpha (Sec61 alpha subunit),1,65246,3043
schlank,1,52478,3707
schlank,2,96401,5576
Indy-2 + CG33934,1,70532,3707
Indy-2 + CG33934,2,1.42e5,7214
fig (fos intronic gene),1,1.26e5,6241
AsnS (Asparagine synthetase),1,88187,3728
CG9727,1,73978,3241
X11Lbeta,1,1.19e5,5436
X11Lbeta,2,1.29e5,5897
CG34345,1,1.52e5,5445
Naprt (Nicotinate phosphoribosyltransferase),1,99224,4112
CG13667,1,76971,3847
CG10562,1,2043,1056
Crz (Corazonin),1,1.14e5,5741
usp (ultraspiracle),1,75151,4224
elB (elbow B),1,1.28e5,5024
elB (elbow B),2,1.03e5,4595
Or59a (Odorant receptor 59a),1,1.02e5,4702
CG8314,1,75782,3234

8 entries from above, set out differently.
target	dsRNA no.	E2F firefly, rep 1	Renilla normaliser, rep 1
CG1354	1	1.08e5	5340
CG4218	1	1.01e5	4743
Sfp53D (Seminal fluid protein 53D)	1	1.82e5	6866
CG30394	1	1.04e5	4038
CG30394	2	1.14e5	4705
Nil (Nilkantha)	1	98276	5175
dpr14 (defective proboscis extension response 14)	1	8084	756
CG31523	1	91766	3923
